Screening data, single-dose tests

Measurements from “University of Dundee, Small-Polar-MMV Screening Library” (2021), ChEMBL document CHEMBL3988442.

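Assay of Toxoplasma gondii numbers, read through their beta-galactosidase reporter with a colour substrate. Concentration: 50 µM. The record gives no direction; the compounds picked for IC50 retests had high values, so higher reads as fewer parasites. About 18,000 compounds were tested under these conditions; 0.94% (about 170) showed 50% or more at least once.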

Results are given as percent effect. How 0% and 100% were set is not recorded. Most values in the screen are low, and negative values occur. The compounds are a random part of those screened.

Compound | percent effect
N[C@@H](C(=O)NCCc1cn[nH]c1)C1CCCCC1 | -10.54%
O=S(=O)(CCO)CCc1c(F)cccc1Cl | -3.775%
O=C(NCCO)NCc1ccncc1OCC(F)(F)F | 8.432%
CCCc1ncc(C(=O)NCC(C)S(N)(=O)=O)s1 (centres undefined) | 0.5946%
Cc1nccn1CCCN1CCOCS1(=O)=O | -15.01%
COc1ccc(C2COCCN2)cc1 (centres undefined) | -40.55%
CCC(CC)NC(=O)CSc1nnc(N)n1C | -0.697%
CCc1noc(Cn2nc(C(F)(F)F)ccc2=O)n1 | 12.82%
O=C(C1CC1)N1CCN(c2ccc(Br)cn2)CC1 | 9.879%
O=C(Nc1ccncc1)N1CCN(CC2CC2)CC1 | 11.51%
COCCOc1ccc(C(=O)NCc2ccco2)cc1 | 2.374%
CC1CS(=O)(=O)CCN1Cc1ccccn1 (centres undefined) | 0.9465%
CC(NC(=O)CCc1ccc(O)cc1)c1cnn(C)c1 (centres undefined) | -11.46%
Cc1ccc(NC(=O)NC2(CCO)CCOCC2)s1 | -5.326%
CSCC(=O)NC(C1CCNCC1)[C@H]1C[C@@H](O)C1 (some centres undefined) | 54.38%
CN(C)CCCNC(=O)CSc1ccccc1 | 14.02%
Cn1nccc1CCC(=O)NCC1CCCNC1 (centres undefined) | 13.52%
CCO[C@H]1COC[C@@H]1NC(=O)c1scc2c1OCCO2 | -7.787%
CN(C)C1CCN(c2ncnc3c2cnn3C)CC1 | -3.031%
COCCNCC(=O)OC | -27.2%
Cc1ccsc1CNC(=O)N1CCOCC1 | 5.827%
CN(CC(=O)NC(N)=O)Cc1ccc(C(F)(F)F)cc1 | 5.77%
CN(CC(=O)Nc1c(Cl)cccc1Cl)S(N)(=O)=O | 5.792%
Cc1cc(C(=O)Nc2cc(C(F)(F)F)c[nH]c2=O)no1 | -8.444%
CCN1CCCC1CNC(=O)c1csc(NC(C)=O)n1 (centres undefined) | -20%
CCOCC1CCN(S(C)(=O)=O)CC1 | 1.919%
CN(C)c1ccc(CN2CCOCC(O)C2)cn1 (centres undefined) | 27.77%
O=c1[nH]c(-c2ccccn2)nc2c1CCC2 | -8.555%
O=C(NCC(O)C1CC1)c1ccccc1C(F)(F)F (centres undefined) | -13.16%
Cc1c(Br)cnn1CC(=O)N1CCOCC1 | -14.15%
O=C(CCN1CCCC1c1ccsc1)N1CCOCC1 (centres undefined) | 6.772%
Cc1cc(C(=O)NC2CC2)cc(S(=O)(=O)N(C)C)c1C | 10.21%
OC(CN1CCCSCC1)c1ccc(F)cc1 (centres undefined) | -6.442%
CN(C1CCCCC1)S(=O)(=O)N1CCNC(=O)C1 | -4.447%
CC1CCN(Cc2cc(=O)n(C)c(=O)n2C)CC1 | 14.14%
CS(=O)(=O)CC1(CNCc2cccs2)CC1 | -8.974%
Cc1noc(OCC(=O)N(C)Cc2ccco2)n1 | -12.45%
COc1cccnc1N1CCNCC1 | -11.47%
CN(C)C(=O)N1CCC(C(=O)N2CCCC2)CC1 | -8.072%
O=C(NCC(=O)N1CCCCCC1)c1ccco1 | -6.462%
CN(C)CCO[C@H]1CCOC[C@H]1NC(=O)c1cn[nH]c1 | 18.1%
CCc1nccn1CCNC(=O)C(C)NC(=O)OC (centres undefined) | 11.99%
CC1Cc2ccccc2N1CC(N)=O (centres undefined) | -1.832%
CCOC(=O)CN(c1cccc(F)c1)S(C)(=O)=O | 10.81%
CN(C)CCN1CCCN(c2ncccc2F)CC1 | -1.116%
CS(=O)(=O)CC(NCc1cc[nH]n1)c1ccccc1 (centres undefined) | -7.05%
Cn1ccnc1CSCCO | -2.672%
COc1ccc(CCC(=O)NCC2CCOCO2)cc1 (centres undefined) | -14.33%
CCc1nnc(CNC(=O)c2cnn(CC)c2C)s1 | -0.9601%
CC(NC(=O)CS(=O)(=O)c1ncccc1Cl)C1CC1 (centres undefined) | -1.68%
NC(=O)C(N)c1ccc2c(c1)OCCO2 (centres undefined) | -14.42%
CN(C)[C@H]1CN(C(=O)Nc2ccccc2F)C[C@@H]1O | -6.476%
COc1ccc(C(=O)N2C[C@H](C3CC3)[C@@H](N)C2)o1 | 4.066%
CC(=O)NC(C)C1CCN(c2ncnc(N)c2Cl)CC1 (centres undefined) | -13.47%
O=C(CC1C=CCC1)N1CCN(c2ccccn2)CC1 (centres undefined) | 8.249%
CN(CCCNC(=O)c1cccs1)S(C)(=O)=O | -6.833%
Cn1ncc(N[C@@H]2C=C[C@H](CO)C2)c(Cl)c1=O | -4.096%
Cc1cccc(NC(C)c2ccc(S(N)(=O)=O)cc2)n1 (centres undefined) | -19.44%
CCNC(=O)c1cccc(CN)c1 | -3.387%
c1ccc(-c2nnc(CC3CCNC3)[nH]2)cc1 (centres undefined) | -1.801%
CCC(C)(O)CN1CCC(Cn2cncn2)CC1 (centres undefined) | -1.313%
CCNC(=O)COC(=O)CN(C)c1ncccn1 | -4.953%
Cc1ccc(CC(=O)N2CCOCC23CCOC3)cc1 (centres undefined) | 13.8%
CCC(C(=O)Nc1ccc(OC)c(CO)c1)N(C)C (centres undefined) | 30.22%
CC(C)(C)c1nc(CN)no1 | -16.74%
CC(C)(C)OC(=O)N[C@@H]1CCCN(Cc2ncc[nH]2)C1 | 4.161%
CCNC(=O)C1CCN(C(=O)CSc2nnc(N)s2)C1 (centres undefined) | -2.076%
CCN(Cc1ccncc1)C(=O)C1CCCNCC1 (centres undefined) | -4.934%
CN1CCC(NC(=O)c2cc(C3CC3)[nH]n2)CC1 | -20.99%
Cn1c(=O)c2c(ncn2CC2CCCCO2)n(C)c1=O (centres undefined) | -18.17%
CCN(CC(=O)NCc1ccccn1)CC1CCOC1 (centres undefined) | 4.871%
CCOC(=O)N1CCN(Cc2nc(C3CC3)no2)CC1 | -2.565%
CCOc1ccc(C(=O)N2CCC(N)CC2)cc1 | 56.89%
Brc1ccc(CN2CCNCC2)nc1 | -1.811%
CCS(=O)(=O)c1nnc(N2CCCC2)s1 | 20.85%
Cc1cc(OC(F)F)c(C2NC(=O)CN2C)cc1C (centres undefined) | -5.843%
Cc1cc(NC(=O)Nc2cnn(C)c2)n(C)n1 | 2.492%
CC(CO)NS(=O)(=O)Cc1ccc(F)c(Cl)c1 (centres undefined) | -10.37%
COc1cccc(CNC(=O)N2CCSCC2)c1OC | -5.568%
CNc1cccnc1C#N | -18.53%
COC(=O)c1ccc(Cl)cc1OCc1ncnn1C | 5.092%
O=C(NCC1CCCOC1)c1ccnc2ccccc12 (centres undefined) | -3.743%
CCC(CC)(CNC(=O)Cc1cc(C)on1)S(C)(=O)=O | -4.294%
O=C(CN1CCc2sccc2C1)N1CCNC1=O | -6.225%
CC(OC(=O)c1ccc(C(F)(F)F)cc1)C(N)=O (centres undefined) | 0.2326%
CC(O)CCNS(=O)(=O)c1cc(S(C)(=O)=O)ccc1Cl (centres undefined) | -15.4%
CC(C)CCC(=O)N1CCNC(=O)C1 | -5.459%
NCCn1cc(C(=O)NCCSC2CCCCC2)nn1 | 11.81%
CN(C)CC1CCN(C(=O)c2ccc(O)c(Cl)c2)CC1 | -26.19%
O=c1cc2c(n[nH]1)CCOC2 | 10.04%

Repeated from the top, 11 entries:

{"compound": "N[C@@H](C(=O)NCCc1cn[nH]c1)C1CCCCC1", "percent effect": -10.54}
{"compound": "O=S(=O)(CCO)CCc1c(F)cccc1Cl", "percent effect": -3.775}
{"compound": "O=C(NCCO)NCc1ccncc1OCC(F)(F)F", "percent effect": 8.432}
{"compound": "CCCc1ncc(C(=O)NCC(C)S(N)(=O)=O)s1", "stereo": "centres undefined", "percent effect": 0.5946}
{"compound": "Cc1nccn1CCCN1CCOCS1(=O)=O", "percent effect": -15.01}
{"compound": "COc1ccc(C2COCCN2)cc1", "stereo": "centres undefined", "percent effect": -40.55}
{"compound": "CCC(CC)NC(=O)CSc1nnc(N)n1C", "percent effect": -0.697}
{"compound": "CCc1noc(Cn2nc(C(F)(F)F)ccc2=O)n1", "percent effect": 12.82}
{"compound": "O=C(C1CC1)N1CCN(c2ccc(Br)cn2)CC1", "percent effect": 9.879}
{"compound": "O=C(Nc1ccncc1)N1CCN(CC2CC2)CC1", "percent effect": 11.51}
{"compound": "COCCOc1ccc(C(=O)NCc2ccco2)cc1", "percent effect": 2.374}